# Reference: PubChem BioAssay (EPA / NIEHS)
# Amino acid sequences for entries named in this document (tags omitted). A change or cut given only in a name is not applied to a line headed by its entry.
# UniProt P06401: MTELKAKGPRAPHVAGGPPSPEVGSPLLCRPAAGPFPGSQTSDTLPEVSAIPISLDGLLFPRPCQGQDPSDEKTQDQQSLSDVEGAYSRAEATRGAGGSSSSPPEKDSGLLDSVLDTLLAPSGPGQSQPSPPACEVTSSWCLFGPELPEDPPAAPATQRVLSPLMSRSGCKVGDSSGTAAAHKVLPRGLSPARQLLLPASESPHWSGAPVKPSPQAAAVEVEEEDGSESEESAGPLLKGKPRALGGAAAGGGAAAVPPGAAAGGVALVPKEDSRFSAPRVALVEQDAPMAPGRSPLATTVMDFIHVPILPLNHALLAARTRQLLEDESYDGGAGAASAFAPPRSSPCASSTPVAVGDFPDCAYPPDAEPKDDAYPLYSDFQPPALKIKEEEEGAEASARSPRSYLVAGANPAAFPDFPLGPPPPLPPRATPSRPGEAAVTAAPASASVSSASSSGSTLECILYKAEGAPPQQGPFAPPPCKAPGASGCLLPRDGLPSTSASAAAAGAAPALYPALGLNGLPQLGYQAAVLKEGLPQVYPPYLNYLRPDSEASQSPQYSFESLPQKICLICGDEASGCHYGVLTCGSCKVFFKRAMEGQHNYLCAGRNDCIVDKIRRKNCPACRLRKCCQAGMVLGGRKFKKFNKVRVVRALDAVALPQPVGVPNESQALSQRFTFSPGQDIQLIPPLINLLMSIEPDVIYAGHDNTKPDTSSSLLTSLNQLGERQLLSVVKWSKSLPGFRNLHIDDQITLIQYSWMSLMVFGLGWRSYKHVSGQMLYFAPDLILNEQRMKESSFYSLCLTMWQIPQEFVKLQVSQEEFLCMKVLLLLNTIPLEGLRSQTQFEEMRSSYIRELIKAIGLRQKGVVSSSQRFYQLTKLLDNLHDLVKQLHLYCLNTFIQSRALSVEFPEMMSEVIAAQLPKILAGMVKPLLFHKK
# UniProt Q96RI1: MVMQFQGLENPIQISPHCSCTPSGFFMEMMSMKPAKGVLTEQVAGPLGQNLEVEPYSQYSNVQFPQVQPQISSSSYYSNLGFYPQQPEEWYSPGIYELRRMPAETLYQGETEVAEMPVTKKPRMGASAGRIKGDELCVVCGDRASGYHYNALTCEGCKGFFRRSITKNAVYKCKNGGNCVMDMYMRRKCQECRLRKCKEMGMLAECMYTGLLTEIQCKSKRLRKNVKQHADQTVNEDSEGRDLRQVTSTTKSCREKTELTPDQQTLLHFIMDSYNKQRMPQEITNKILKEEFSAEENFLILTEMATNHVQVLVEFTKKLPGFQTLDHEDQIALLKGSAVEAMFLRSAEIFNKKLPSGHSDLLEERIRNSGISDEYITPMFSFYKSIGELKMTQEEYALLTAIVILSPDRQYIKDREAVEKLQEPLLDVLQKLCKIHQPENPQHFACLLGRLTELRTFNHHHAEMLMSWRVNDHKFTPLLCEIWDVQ
# UniProt P37231: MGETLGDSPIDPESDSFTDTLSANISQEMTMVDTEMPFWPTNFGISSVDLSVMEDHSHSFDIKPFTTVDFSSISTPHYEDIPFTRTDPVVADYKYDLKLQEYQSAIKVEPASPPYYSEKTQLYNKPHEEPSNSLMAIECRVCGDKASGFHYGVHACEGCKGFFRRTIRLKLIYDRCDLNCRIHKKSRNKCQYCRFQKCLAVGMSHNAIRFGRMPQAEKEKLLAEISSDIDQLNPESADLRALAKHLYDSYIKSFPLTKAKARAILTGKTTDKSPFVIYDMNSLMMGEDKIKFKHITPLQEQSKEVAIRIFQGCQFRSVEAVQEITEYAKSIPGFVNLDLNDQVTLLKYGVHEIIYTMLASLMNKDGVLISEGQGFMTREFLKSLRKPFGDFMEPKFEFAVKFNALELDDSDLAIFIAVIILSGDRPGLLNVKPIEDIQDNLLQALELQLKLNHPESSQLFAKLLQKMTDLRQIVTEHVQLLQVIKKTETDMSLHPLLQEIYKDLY
# UniProt P10415, whole entry, looked up: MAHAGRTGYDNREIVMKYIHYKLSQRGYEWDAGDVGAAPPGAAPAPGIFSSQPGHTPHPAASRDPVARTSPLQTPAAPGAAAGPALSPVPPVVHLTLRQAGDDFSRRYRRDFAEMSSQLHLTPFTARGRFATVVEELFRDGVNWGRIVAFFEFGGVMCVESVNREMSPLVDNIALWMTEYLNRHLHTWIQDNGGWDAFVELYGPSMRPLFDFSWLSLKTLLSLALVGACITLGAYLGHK
# For part of these data: The hits were mostly taken out for another list; the other results follow. Records with an inconclusive call do not appear. A structure can be active in one record and inactive in another. The list shows a part of the results, in another mix than the full data. Activity calls are given as the source filed them. The calls were made as follows, unless noted: active = hit-call score of the fitted dose curve at least 0.9, where 1 is the maximum; inactive = score below 0.9.
# Assays:
# [1] = biological target: PGR (gene 5241) (UniProt P06401); assay: NVS_NR_hPR: NovaScreen (NVS) Nuclear Receptor Binding Assay for human Progestron Receptor (PR) (AID 2283360; active = hit-call score of the fitted dose curve at least 0.9, where 1 is the maximum;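 also: active means loss of bound radioligand signal versus DMSO baseline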)
# Method in brief: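 Competitive displacement of a labelled radioligand from T47D-derived receptor protein is measured in a cell-free format. Initial testing uses 25 uM in duplicate, with positive and negative controls on every plate.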
# [2] = biological target: Bile acid receptor (Homo sapiens) (UniProt Q96RI1); assay: OT_FXR_FXRSRC1_0480: Odyssey Thera (OT) 8-hour HEK293T Protein-Complementation Assay for Farnesoid X receptor/SRC-1 Co-activator (AID 2283383; active = hit-call score of the fitted dose curve at least 0.9, where 1 is the maximum)
# Method in brief: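 PCA, HEK293T, 8 h compound exposure; FXR–SRC-1 binding reconstitutes split reporter; fluorescence intensity; positive-direction fit vs DMSO.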
# [3] = biological target: Peroxisome proliferator-activated receptor gamma (Homo sapiens) (UniProt P37231); assay: OT_PPARg_PPARgSRC1_0480: Odyssey Thera (OT) 8-hour Protein-Complementation Assay for Peroxisome Proliferator-activated Receptor Gamma / SRC-1 Co-activator (AID 2283387; active = hit-call score of the fitted dose curve at least 0.9, where 1 is the maximum;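 also: nuclear to cytoplasmic split Venus YFP fluorescence ratio reporting PPARg SRC-1 interaction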)
# Method in brief: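 Split-YFP (IFP1/IFP2) PPARg/SRC-1 reporter, HEK293T, 37 °C, 5% CO2; 8 h compound; formaldehyde fix + Draq5; high-content imaging, N/C ratio, ≥350 cells/image, positive direction vs DMSO.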
# [4] = CEETOX_H295R_OHPROG: CeeTox H295R High-throughput Steroidogenesis Assay for OH-Progesterone (OHPROG) (AID 2283435); conditions: actives raise or lower the signal;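 also: human adrenal H295R cells primed 48 h with 10 µM forskolin; 17alpha-hydroxyprogesterone secreted into medium measured by HPLC-MS/MS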
# Procedure: CEETOX_H295R is a cell-based, multiplexed-readout assay that uses H295R, a human adrenal gland cell line, with measurements taken at 48 hours after chemical dosing in a 96-well plate.CEETOX_H295R_OHPROG is one of 23 assay component(s) measured or calculated from the CEETOX_H295R assay. It is designed to make measurements of hormone induction, a form of inducible reporter, as detected with absorbance signals by HPLC-MS-MS technology.Data from the assay component CEETOX_H295R_OHPROG was analyzed into 1 assay endpoint. This assay endpoint, CEETOX_H295R_OHPROG, was analyzed with bidirectional fitting relative to DMSO as the negative control and baseline of activity. Using a type of inducible reporter, gain or loss-of-signal activity using HPLC-MS-MS was used to understand synthesis of 17alpha-hydroxyprogesterone in H295R cell line at 48hr of chemical exposure. To generalize the intended target to other relatable targets, this assay endpoint is annotated to the steroid hormone intended target family, where the subfamily is progestagens.
# Cell culture and media preparation procedures were conducted in accordance with OECD Test No. 456 guidelines, with minor modifications. H295R cells (ATCC CRL-2128) were expanded for 5 passages and frozen in batches in liquid nitrogen. Prior to the steroidogenesis assay, H295R cells were thawed and passed at least 4 times. The maximum passage was 10. Cells were maintained in a 1:1 mixture of DMEM/F12 supplemented with 5ml/L ITS+ Premix (BD Bioscience) and 12.5 ml/L Nu-Serum (BD Bioscience). After seeding cells into 96-well plates at 50-60% confluency, cells were allowed to adhere overnight. Prior to chemical testing, culture medium was replaced with 175 uL medium containing 10 uM forskolin to stimulate steroidogenesis for 48 hours. Following prestimulation, forskolin medium was replaced with medium containing test chemical solubilized in DMSO (ensuring a final concentration of 0.1% DMSO). Test chemicals were incubated for 48 hours, then the medium was removed and split into 2 vials containing approximately 75uL each, and stored at -80 C prior to hormone analysis. For steroid quantification, media samples were shipped to OpAns, LLC (Durham, NC) on dry ice, and samples were thawed to room temperature prior to liquid-liquid extraction. Steroid hormones were extracted from media samples using methyl tertbutyl ether (MTBE). An extra derivatization with dansyl chloride was included for estrogen (estrone and estradiol) detection only. Steroid hormones were separated by HPLC, eluted using a reverse phase C18 gradient with electrospray positive ionization, followed by quantification by tandem mass spectrometry (MS/MS). Data were acquired on a MassHunter Workstation Acquisition version B03.01 (Agilent Technologies, Inc.) and processed using MassHunter Quantitative Analysis for QQQ. Accuracy was determined for each hormone analyte from 3 standards to determine upper and lower limits of quantification (ULOQ and LLOQ, respectively) using a 7-point standard curve. Precision and accuracy of the extraction and quantification methods were calculated as the percent relative standard deviation (%RSD) of the spiked standards and percent spiked standard recovered, respectively. The goal was to achieve 100% accuracy (i.e., recover all spiked-in standard at quantification with minimal loss during run time) and good precision (i.e., have %RSD <15% to ensure reproducibility). Test medium was removed following chemical exposure, and cell viability was evaluated in the same wells by MTT. MTT procedures were as follows: after removal of test medium, 500 uL of 0.5 mg/ml of 3-[4,5-dimethylthiazol-2-y]2,5-diphenyltetrazoliumbromide solution was added to the cells. Following a 4-hour incubation at 37 C and 5% CO2 to allow formazan-crystal formation, the MTT solution was removed and blue formazan salt crystals were solubilized using 500uL anhydrous isopropanol with shaking for 20 minutes. […]
# [5] = CEETOX_H295R_PROG: CeeTox H295R High-throughput Steroidogenesis Assay for Progesterone (PROG) (AID 2283442); conditions: actives raise or lower the signal;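 also: human H295R adrenal cells primed with 10 µM forskolin before dosing; progesterone secreted into medium by H295R cells measured by HPLC-MS/MS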
# Method in brief: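 Adrenal H295R line, forskolin-stimulated (10 uM, 48 h) before dosing. 48 h exposure, 0.1% DMSO vehicle. Secreted progesterone by reverse-phase HPLC with ESI+ MS/MS quantification; DMSO-normalised bidirectional curve fit.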
# [6] = read-out: ABC Transporter (ABCC2), ABCC2 (gene 1244); assay: LTEA_HepaRG_ABCC2: Life Technologies and Expression Analysis (LTEA) Assay for ABC Transporter (ABCC2) using HepaRG (AID 2283464); conditions: actives raise or lower the signal; mRNA level, 48 h
# Method in brief: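 Gene expression of ABCC2 was determined by qRT-PCR in HepaRG cells exposed 48 h to chemicals (highest 100 uM, half-log dilutions). Activity was fitted in both directions relative to 0.5% DMSO vehicle.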
# [7] = read-out: Apoptosis regulator Bcl-2 (Homo sapiens) (UniProt P10415); assay: LTEA_HepaRG_BCL2: Life Technologies and Expression Analysis (LTEA) Assay for Bcl-2 gene using HepaRG (AID 2283475); conditions: actives raise or lower the signal; mRNA level, 48 h;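 also: BCL2 transcript by TaqMan qRT-PCR normalised to ACTB GAPDH and POLR2A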
# Method in brief: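 Plated human HepaRG cells are exposed to test chemicals for 48 h across eight concentrations from 100 uM downward in half-log steps (0.5% DMSO). BCL2 expression is then measured by qRT-PCR with housekeeping normalisation and fitted bidirectionally against vehicle.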
# [8] = read-out: Insulin Like Growth Factor 1 (IGF1), IGF1 (gene 3479); assay: LTEA_HepaRG_IGF1: Life Technologies and Expression Analysis (LTEA) Assay for Insulin Like Growth Factor 1 (IGF1) using HepaRG (AID 2283506); conditions: actives raise or lower the signal; mRNA level, 48 h
# Method in brief: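 Cells are thawed, plated and cultured 48 h, then exposed in duplicate to chemical (highest 100 uM, half-log steps, 0.5% DMSO) for another 48 h. Total RNA is analysed by Fluidigm qRT-PCR for IGF1 expression relative to vehicle.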
# [9] = Tanguay_ZF_120hpf_SOMI_legacy: (Legacy) Oregon State University Tanguay Lab 120 Hour Post-fertilization zebrafish Assay for Somite Malformation (AID 2283647; active = hit-call score of the fitted dose curve at least 0.9, where 1 is the maximum)
# Method in brief: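 5D WT zebrafish; chorion removed 4 hpf; 1 embryo/well from 6 hpf; static exposure to 120 hpf, 28C, 0.64% DMSO final. Endpoint: somite malformation, binary, brightfield. Mortality excluded.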
# [10] = read-out: sulfotransferase (SULT2A), SULT2A1 (gene 6822); assay: CLD_SULT2A_48hr: CellzDirect (CLD) Gene Expression Assay for sulfotransferase (SULT2A) at 48 hours (AID 2283710; active = hit-call score of the fitted dose curve at least 0.9, where 1 is the maximum;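 also: hits raise SULT2A1 transcript above the 0.2% DMSO vehicle baseline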)
# Method in brief: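 SULT2A1 transcript measured by qNPA chemiluminescence in human primary hepatocyte cultures after 48 h, with fresh dosing solutions on two consecutive days; gain-of-signal fitting against 0.2% DMSO vehicle; cytotoxicity annotated from phase-contrast morphology.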
# [11] = CCTE_Shafer_MEA_acute_network_burst_percentage: CCTE's Neural Acute Assay for Percentage of Network Bursts, Shafer Lab (AID 2284022);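 also: rat primary cortical neuron networks on multiwell MEA recorded 40 min; curves fitted for loss so actives lower network burst percentage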
# Method in brief: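 Cortical neurons from rat were grown over microelectrode arrays and used on day 13 or 15 in vitro. Wells with at least 10 active electrodes received test chemical at 0.03-40 uM. Activity during 40 min of exposure was compared with the preceding 40-min baseline.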
# [12] = CCTE_Shafer_MEA_dev_interburst_interval_mean: CCTE's Neural Network Formation Assay for Mean Interburst Interval, Shafer Lab (AID 2284046);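 also: well-mean interburst interval of bursting electrodes as AUC over four recording days; curve fitted for decrease in interburst interval relative to DMSO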
# Method in brief: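 Network formation assay in primary rat cortical cultures, exposed from DIV 0 to 12. Mean interburst interval per well, integrated as AUC over four recordings.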
# [13] = BSK_BT_PBMCCytotoxicity: PBMC Cytotoxicity Assessment in the BioMAP Diversity Plus: BT Assay (AID 2284225); conditions: primary human B cells with PBMC;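 also: PBMC viability measured by Alamar Blue dye reduction fluorescence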
# Method in brief: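 Viability by Alamar Blue reduction (6 h, ex/em 546/580 nm) after 90 h culture of SEB/TSST-1-activated PBMC (20 ng/mL each) given compound 1 h before activation. DMSO served as baseline for curve fitting.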
# [14] = read-out: Secreted IgG (sIgG), gene 3500; assay: BSK_BT_sIgG: BioMAP Diversity Plus: BT Assay for Secreted IgG (sIgG) Biomarker Activity (AID 2284226); conditions: primary human B cells with PBMC
# Method in brief: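 Cells (B cells with peripheral blood mononuclear cells) are dosed, cultured 24 h, then supernatant IgG is measured by ELISA. DMSO serves as negative control; curves are fitted for signal increase.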
# [15] = read-out: Vascular cell adhesion molecule 1 (VCAM1), VCAM1 (gene 7412); assay: BSK_MyoF_VCAM1: BioMAP Diversity Plus: MyoF Assay for Vascular cell adhesion molecule 1 (VCAM1) Biomarker Activity (AID 2284231); conditions: primary human lung fibroblasts
# Method in brief: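 Steps: fibroblasts from human lung exposed to compound; biomarker quantified by ELISA at 24 h; values analysed for upward change over the DMSO baseline.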
smiles,measurement,setting,value
ClC1C(Cl)C(Cl)C(Cl)C(Cl)C1Cl (stereo not given),outcome,[1],inactive
same,AC50,[2],active: 50 µM
same,outcome,[3],inactive
same,AC50,[4],active: 35.6 µM
same,AC50,[5],active: 17.5 µM
same,AC50,[6],active: 1.33 µM
same,outcome,[7],inactive
same,outcome,[8],inactive
same,outcome,[9],inactive
same,AC50,[10],active: 2.16 µM
same,outcome,[11],inactive
same,outcome,[12],inactive
same,outcome,[13],inactive
same,AC50,[14],active: 20 µM
same,AC50,[15],active: 14.1 µM
